Laboratory results taken from patent EP0497122A1, “Substituted 3-aminosydnonimines, process for their preparation and their use” (CASSELLA Aktiengesellschaft, priority 1991, dated 1992).
At least one compound was matched to its structure with a doubt left.

System: Spiralstreifen der Arteria pulmonalis des Meerschweinchens
Assay: Relaxation of the calcium-induced contraction of potassium-depolarised pulmonary artery spiral strips (modified method of Godfraind and Kaba / Schüman et al)
Type: cell-based, Meerschweinchen
Conditions: concentration that inhibits the contraction by 50 %; strips depolarised with 40 mmol/l Kalium, contraction by 0,5 mmol/l CaCl₂; cumulative addition; mean of 4 to 6 strips

SMILES: CCO/C([O-])=N/c1c[n+](N2CCOCC2)no1 [Molsidomin, N-Ethoxycarbonyl-3-morpholinosydnonimin]
- IC₅₀: 3,0.10⁻⁴ mol/l
